# Test results as given in the supplement of paper PMC6411743.
# Sequences of proteins named here, by UniProt entry; tags and fusion partners are left off. A change or cut given only in a name is not applied to a line headed by its entry.
# UniProt Q7L5Y1: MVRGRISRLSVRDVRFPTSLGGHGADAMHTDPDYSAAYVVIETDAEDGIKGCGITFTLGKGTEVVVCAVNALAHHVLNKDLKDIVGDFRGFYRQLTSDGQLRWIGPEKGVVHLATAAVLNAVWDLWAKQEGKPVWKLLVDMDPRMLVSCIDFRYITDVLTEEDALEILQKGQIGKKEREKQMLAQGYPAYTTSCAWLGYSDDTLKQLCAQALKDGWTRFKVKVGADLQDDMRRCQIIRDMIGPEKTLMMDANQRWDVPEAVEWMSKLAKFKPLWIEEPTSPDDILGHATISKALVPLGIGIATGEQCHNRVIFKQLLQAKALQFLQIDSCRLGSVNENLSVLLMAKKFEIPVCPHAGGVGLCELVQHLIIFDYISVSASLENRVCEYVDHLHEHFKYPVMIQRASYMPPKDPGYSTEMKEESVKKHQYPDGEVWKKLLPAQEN
# UniProt Q7Z2T5: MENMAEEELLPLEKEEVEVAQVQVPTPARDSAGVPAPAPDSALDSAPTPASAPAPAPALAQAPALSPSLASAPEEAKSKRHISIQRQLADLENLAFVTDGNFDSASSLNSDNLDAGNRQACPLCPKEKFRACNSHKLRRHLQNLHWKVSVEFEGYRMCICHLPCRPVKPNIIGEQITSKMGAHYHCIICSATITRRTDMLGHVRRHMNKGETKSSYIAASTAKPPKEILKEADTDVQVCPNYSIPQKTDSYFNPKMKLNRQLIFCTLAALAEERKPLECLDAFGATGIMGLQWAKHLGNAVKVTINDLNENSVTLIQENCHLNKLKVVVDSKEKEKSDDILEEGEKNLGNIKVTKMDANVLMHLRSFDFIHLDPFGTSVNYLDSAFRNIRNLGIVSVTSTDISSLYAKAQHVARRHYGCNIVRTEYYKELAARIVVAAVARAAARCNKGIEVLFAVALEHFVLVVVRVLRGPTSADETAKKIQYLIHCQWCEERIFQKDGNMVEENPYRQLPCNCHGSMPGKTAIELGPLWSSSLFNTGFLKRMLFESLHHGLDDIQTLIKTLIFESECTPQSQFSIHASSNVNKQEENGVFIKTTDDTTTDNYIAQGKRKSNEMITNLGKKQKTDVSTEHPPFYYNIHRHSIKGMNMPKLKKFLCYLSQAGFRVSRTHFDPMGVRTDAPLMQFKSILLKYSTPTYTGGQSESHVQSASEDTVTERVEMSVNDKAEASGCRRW
# UniProt Q6N069: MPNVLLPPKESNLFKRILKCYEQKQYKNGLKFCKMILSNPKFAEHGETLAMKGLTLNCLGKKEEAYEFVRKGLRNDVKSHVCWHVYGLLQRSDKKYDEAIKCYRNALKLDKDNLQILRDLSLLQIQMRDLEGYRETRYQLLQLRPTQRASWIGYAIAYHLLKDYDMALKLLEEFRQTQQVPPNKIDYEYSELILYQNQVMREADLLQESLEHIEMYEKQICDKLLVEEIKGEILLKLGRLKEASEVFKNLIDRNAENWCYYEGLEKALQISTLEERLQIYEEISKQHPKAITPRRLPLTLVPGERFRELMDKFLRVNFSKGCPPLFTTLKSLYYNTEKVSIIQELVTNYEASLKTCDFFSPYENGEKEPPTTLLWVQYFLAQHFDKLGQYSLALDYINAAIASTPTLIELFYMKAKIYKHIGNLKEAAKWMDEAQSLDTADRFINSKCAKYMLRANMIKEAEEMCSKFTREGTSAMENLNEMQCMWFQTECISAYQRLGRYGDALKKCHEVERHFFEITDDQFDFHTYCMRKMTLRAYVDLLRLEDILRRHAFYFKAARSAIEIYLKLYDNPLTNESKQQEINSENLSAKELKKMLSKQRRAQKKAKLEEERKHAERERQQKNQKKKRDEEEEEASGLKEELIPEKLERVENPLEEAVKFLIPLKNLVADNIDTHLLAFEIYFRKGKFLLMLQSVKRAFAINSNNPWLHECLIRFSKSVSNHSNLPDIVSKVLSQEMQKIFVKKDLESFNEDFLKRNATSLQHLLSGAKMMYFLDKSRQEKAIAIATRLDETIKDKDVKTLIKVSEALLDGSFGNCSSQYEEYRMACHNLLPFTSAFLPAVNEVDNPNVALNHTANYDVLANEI
# UniProt Q6DKK2: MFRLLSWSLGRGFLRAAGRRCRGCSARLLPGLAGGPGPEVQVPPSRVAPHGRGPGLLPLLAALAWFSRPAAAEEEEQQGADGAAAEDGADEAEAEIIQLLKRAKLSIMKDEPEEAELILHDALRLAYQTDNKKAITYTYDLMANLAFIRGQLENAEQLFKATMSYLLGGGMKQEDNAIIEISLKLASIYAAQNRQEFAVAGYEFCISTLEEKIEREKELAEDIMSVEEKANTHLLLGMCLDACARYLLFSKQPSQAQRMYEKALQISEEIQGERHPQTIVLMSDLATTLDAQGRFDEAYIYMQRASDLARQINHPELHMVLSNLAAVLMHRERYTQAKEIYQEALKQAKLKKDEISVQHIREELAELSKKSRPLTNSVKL
# UniProt Q6QNY0: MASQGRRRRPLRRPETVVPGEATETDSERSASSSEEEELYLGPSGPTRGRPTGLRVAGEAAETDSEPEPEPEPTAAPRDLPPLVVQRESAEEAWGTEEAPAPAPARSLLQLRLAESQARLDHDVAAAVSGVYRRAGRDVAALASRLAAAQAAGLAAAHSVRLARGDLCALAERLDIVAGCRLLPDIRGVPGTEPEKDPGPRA
# UniProt Q6NW34: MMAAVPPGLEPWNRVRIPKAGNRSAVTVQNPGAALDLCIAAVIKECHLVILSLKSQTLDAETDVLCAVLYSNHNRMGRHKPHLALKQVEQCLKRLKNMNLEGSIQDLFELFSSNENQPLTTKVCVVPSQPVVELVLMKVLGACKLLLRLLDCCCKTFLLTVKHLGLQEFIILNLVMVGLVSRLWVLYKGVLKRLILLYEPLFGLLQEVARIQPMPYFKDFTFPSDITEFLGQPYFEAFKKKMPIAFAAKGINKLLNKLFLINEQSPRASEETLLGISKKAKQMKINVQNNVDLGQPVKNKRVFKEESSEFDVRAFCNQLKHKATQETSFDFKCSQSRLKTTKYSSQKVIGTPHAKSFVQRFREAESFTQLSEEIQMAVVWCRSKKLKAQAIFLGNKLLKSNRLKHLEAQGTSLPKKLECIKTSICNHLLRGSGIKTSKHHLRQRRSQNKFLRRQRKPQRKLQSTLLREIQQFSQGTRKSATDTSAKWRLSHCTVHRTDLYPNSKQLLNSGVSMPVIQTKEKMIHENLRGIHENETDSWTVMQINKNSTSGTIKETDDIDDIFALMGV
# UniProt Q86TP1: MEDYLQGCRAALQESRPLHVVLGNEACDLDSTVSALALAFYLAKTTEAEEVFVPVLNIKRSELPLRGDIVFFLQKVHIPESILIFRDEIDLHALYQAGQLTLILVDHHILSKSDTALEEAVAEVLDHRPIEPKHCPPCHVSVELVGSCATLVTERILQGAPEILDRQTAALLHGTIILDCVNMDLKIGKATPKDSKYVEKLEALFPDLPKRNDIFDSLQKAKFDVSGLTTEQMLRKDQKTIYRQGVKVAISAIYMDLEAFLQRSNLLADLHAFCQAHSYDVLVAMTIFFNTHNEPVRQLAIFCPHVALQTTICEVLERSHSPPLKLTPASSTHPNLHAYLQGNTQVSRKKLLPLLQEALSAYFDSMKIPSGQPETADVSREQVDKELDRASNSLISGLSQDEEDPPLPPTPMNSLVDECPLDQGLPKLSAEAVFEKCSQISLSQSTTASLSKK
# UniProt Q6Y7W6: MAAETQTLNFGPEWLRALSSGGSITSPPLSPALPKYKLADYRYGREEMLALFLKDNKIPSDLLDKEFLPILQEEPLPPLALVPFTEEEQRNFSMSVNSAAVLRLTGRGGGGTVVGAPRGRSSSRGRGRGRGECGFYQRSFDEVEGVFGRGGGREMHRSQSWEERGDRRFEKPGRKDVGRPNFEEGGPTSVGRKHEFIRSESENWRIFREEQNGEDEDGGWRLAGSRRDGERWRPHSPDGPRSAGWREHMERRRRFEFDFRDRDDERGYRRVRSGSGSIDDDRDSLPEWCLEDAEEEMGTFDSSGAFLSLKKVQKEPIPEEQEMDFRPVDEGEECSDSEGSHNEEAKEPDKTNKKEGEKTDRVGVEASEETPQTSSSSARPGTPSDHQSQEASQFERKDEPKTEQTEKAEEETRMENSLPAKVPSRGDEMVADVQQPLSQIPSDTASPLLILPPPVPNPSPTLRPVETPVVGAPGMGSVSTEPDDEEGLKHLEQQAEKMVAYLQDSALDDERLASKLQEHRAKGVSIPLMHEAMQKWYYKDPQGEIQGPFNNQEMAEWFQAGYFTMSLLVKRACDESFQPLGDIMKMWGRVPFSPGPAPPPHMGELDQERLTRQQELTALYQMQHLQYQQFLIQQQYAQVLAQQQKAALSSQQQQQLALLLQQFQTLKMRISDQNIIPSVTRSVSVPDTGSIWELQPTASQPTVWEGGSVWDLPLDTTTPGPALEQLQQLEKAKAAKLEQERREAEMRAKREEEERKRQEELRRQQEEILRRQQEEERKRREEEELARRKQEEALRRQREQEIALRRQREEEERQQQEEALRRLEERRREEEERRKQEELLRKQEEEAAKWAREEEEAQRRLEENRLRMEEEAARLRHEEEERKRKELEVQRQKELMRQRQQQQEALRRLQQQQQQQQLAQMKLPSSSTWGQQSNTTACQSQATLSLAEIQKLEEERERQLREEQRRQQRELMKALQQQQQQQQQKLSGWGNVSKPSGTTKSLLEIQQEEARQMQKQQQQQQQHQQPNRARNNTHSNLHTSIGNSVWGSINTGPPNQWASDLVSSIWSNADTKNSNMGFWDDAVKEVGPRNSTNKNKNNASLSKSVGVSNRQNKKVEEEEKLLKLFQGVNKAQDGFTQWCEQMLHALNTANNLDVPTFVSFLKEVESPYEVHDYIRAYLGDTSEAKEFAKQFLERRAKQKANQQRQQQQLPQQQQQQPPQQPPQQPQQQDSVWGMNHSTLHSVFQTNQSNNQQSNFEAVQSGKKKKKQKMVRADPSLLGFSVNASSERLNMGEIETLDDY
# UniProt Q6PL24: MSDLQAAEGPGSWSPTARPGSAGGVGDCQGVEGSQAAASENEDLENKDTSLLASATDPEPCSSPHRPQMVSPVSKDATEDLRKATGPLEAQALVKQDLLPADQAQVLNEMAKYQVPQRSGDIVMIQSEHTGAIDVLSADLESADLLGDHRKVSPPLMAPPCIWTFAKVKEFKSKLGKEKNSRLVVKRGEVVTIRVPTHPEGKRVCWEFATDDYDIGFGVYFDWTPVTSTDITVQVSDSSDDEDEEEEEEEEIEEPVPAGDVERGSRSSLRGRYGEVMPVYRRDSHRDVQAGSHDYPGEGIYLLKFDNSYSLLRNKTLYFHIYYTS
# UniProt Q5U5X0: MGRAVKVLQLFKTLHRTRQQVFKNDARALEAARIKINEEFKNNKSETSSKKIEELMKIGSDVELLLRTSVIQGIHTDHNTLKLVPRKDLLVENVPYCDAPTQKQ
# UniProt Q86UE4: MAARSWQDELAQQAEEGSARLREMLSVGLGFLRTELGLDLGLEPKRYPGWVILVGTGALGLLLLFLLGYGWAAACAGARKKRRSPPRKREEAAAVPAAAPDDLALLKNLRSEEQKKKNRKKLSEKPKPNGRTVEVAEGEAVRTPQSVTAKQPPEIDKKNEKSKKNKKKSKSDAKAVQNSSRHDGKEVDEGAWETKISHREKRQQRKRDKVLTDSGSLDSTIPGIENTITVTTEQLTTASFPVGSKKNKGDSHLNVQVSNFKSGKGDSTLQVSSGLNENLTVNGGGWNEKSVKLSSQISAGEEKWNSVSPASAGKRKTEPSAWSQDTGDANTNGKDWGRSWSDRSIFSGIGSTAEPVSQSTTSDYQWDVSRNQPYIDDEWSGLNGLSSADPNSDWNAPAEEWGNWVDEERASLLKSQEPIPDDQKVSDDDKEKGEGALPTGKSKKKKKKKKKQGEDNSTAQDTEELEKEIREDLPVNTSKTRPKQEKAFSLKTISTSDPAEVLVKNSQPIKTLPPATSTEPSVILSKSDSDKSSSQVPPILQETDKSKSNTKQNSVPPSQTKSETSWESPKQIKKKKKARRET
# UniProt Q6ZNW5: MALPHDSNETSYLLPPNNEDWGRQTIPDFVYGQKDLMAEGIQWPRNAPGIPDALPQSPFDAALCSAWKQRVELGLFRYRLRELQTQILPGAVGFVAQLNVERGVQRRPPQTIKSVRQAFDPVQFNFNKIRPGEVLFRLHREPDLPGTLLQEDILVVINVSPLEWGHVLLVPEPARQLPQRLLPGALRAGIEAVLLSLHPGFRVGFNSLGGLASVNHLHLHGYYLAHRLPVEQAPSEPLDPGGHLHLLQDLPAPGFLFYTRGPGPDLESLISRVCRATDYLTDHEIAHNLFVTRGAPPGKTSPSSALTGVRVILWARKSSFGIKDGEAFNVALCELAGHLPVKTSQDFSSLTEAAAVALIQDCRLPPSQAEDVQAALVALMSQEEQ
# ± gives the standard deviation of the averaged measurements. The list shows a part of the results.
# Compound: Nc1nc2c(ncn2[C@@H]2O[C@H](COP(=O)(O)OP(=O)(O)OP(=O)(O)O)[C@@H](O)[C@H]2O)c(=O)[nH]1 [guanosine triphosphate]
# Test: NP40-soluble protein abundance relative to vehicle (solubility fold change) (ratio); higher = more soluble protein in presence of GTP
# Summary of the method: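 Jurkat crude lysate (Dounce-homogenised) was treated with eight concentrations from 0.1 to 10 mM for 10 min at room temperature, then 3 min at 37 °C. It was solubilised with 0.8% NP40 and benzonase (60 min, 4 °C) and ultracentrifuged, and the supernatant was TMT-labelled for LC-MS/MS. Intensities were vsn-normalised, and the value is the fold change against the NP40-processed vehicle per replicate, from three independent experiments.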
target,measurement,setting,value
UniProt Q7L5Y1 and related entries,NP40-soluble protein abundance,concentration: 0.1mM,0.98 ± 0.083
same,NP40-soluble protein abundance,concentration: 0.5mM,0.984 ± 0.06
same,NP40-soluble protein abundance,concentration: 1mM,0.919 ± 0.049
same,NP40-soluble protein abundance,concentration: 2mM,0.914 ± 0.055
same,NP40-soluble protein abundance,concentration: 4mM,0.9 ± 0.18
same,NP40-soluble protein abundance,concentration: 6mM,0.889 ± 0.038
same,NP40-soluble protein abundance,concentration: 8mM,0.861 ± 0.18
same,NP40-soluble protein abundance,concentration: 10mM,0.86 ± 0.2
UniProt Q7Z2T5,NP40-soluble protein abundance,concentration: 0.1mM,1.05 ± 0.05
same,NP40-soluble protein abundance,concentration: 0.5mM,1.09 ± 0.014
same,NP40-soluble protein abundance,concentration: 1mM,1.08 ± 0.035
same,NP40-soluble protein abundance,concentration: 2mM,1.21 ± 0.059
same,NP40-soluble protein abundance,concentration: 4mM,1.32 ± 0.072
same,NP40-soluble protein abundance,concentration: 6mM,1.42 ± 0.08
same,NP40-soluble protein abundance,concentration: 8mM,1.44 ± 0.059
same,NP40-soluble protein abundance,concentration: 10mM,1.57 ± 0.024
UniProt Q6N069,NP40-soluble protein abundance,concentration: 0.1mM,1.18 ± 0.17
same,NP40-soluble protein abundance,concentration: 0.5mM,1.15 ± 0.15
same,NP40-soluble protein abundance,concentration: 1mM,0.945 ± 0.049
same,NP40-soluble protein abundance,concentration: 2mM,1.11 ± 0.16
same,NP40-soluble protein abundance,concentration: 4mM,1.08 ± 0.1
same,NP40-soluble protein abundance,concentration: 6mM,1.01 ± 0.11
same,NP40-soluble protein abundance,concentration: 8mM,0.926 ± 0.086
same,NP40-soluble protein abundance,concentration: 10mM,0.926 ± 0.13
UniProt Q7L5D6 and related entries,NP40-soluble protein abundance,concentration: 0.1mM,1.03 ± 0.056
same,NP40-soluble protein abundance,concentration: 0.5mM,0.98 ± 0.091
same,NP40-soluble protein abundance,concentration: 1mM,0.94 ± 0.047
same,NP40-soluble protein abundance,concentration: 2mM,0.975 ± 0.11
same,NP40-soluble protein abundance,concentration: 4mM,0.963 ± 0.12
same,NP40-soluble protein abundance,concentration: 6mM,0.986 ± 0.1
same,NP40-soluble protein abundance,concentration: 8mM,0.868 ± 0.053
same,NP40-soluble protein abundance,concentration: 10mM,0.887 ± 0.12
TTC19 (UniProt Q6DKK2),NP40-soluble protein abundance,concentration: 0.1mM,0.892 ± 0.1
same,NP40-soluble protein abundance,concentration: 0.5mM,0.806 ± 0.038
same,NP40-soluble protein abundance,concentration: 1mM,1.03 ± 0.15
same,NP40-soluble protein abundance,concentration: 2mM,1.03 ± 0.091
same,NP40-soluble protein abundance,concentration: 4mM,0.984 ± 0.13
same,NP40-soluble protein abundance,concentration: 6mM,1 ± 0.097
same,NP40-soluble protein abundance,concentration: 8mM,0.926 ± 0.13
same,NP40-soluble protein abundance,concentration: 10mM,0.98 ± 0.17
BLOC1S3 (UniProt Q6QNY0),NP40-soluble protein abundance,concentration: 0.1mM,0.942 ± 0.0097
same,NP40-soluble protein abundance,concentration: 0.5mM,0.958 ± 0.078
same,NP40-soluble protein abundance,concentration: 1mM,1.11 ± 0.048
same,NP40-soluble protein abundance,concentration: 2mM,1.1 ± 0.072
same,NP40-soluble protein abundance,concentration: 4mM,1.08 ± 0.043
same,NP40-soluble protein abundance,concentration: 6mM,1.09 ± 0.029
same,NP40-soluble protein abundance,concentration: 8mM,1.04 ± 0.15
same,NP40-soluble protein abundance,concentration: 10mM,1.07 ± 0.032
UniProt Q6NW34 and related entries,NP40-soluble protein abundance,concentration: 0.1mM,0.848 ± 0.051
same,NP40-soluble protein abundance,concentration: 0.5mM,0.888 ± 0.08
same,NP40-soluble protein abundance,concentration: 1mM,0.881 ± 0.074
same,NP40-soluble protein abundance,concentration: 2mM,0.85 ± 0.031
same,NP40-soluble protein abundance,concentration: 4mM,0.839 ± 0.071
same,NP40-soluble protein abundance,concentration: 6mM,0.929 ± 0.032
same,NP40-soluble protein abundance,concentration: 8mM,0.871 ± 0.059
same,NP40-soluble protein abundance,concentration: 10mM,0.93 ± 0.012
UniProt Q86TP1 and related entries,NP40-soluble protein abundance,concentration: 0.1mM,0.954 ± 0.041
same,NP40-soluble protein abundance,concentration: 0.5mM,0.991 ± 0.085
same,NP40-soluble protein abundance,concentration: 1mM,0.946 ± 0.046
same,NP40-soluble protein abundance,concentration: 2mM,0.964 ± 0.12
same,NP40-soluble protein abundance,concentration: 4mM,0.918 ± 0.1
same,NP40-soluble protein abundance,concentration: 6mM,0.936 ± 0.1
same,NP40-soluble protein abundance,concentration: 8mM,0.938 ± 0.059
same,NP40-soluble protein abundance,concentration: 10mM,0.913 ± 0.091
UniProt Q6Y7W6 and related entries,NP40-soluble protein abundance,concentration: 0.1mM,0.984 ± 0.041
same,NP40-soluble protein abundance,concentration: 0.5mM,0.996 ± 0.059
same,NP40-soluble protein abundance,concentration: 1mM,1.05 ± 0.056
same,NP40-soluble protein abundance,concentration: 2mM,1.09 ± 0.08
same,NP40-soluble protein abundance,concentration: 4mM,1.13 ± 0.062
same,NP40-soluble protein abundance,concentration: 6mM,1.16 ± 0.079
same,NP40-soluble protein abundance,concentration: 8mM,1.21 ± 0.062
same,NP40-soluble protein abundance,concentration: 10mM,1.2 ± 0.079
UniProt Q5TC82 and related entries,NP40-soluble protein abundance,concentration: 0.1mM,0.966 ± 0.096
same,NP40-soluble protein abundance,concentration: 0.5mM,0.928 ± 0.071
same,NP40-soluble protein abundance,concentration: 1mM,0.981 ± 0.17
same,NP40-soluble protein abundance,concentration: 2mM,0.968 ± 0.11
same,NP40-soluble protein abundance,concentration: 4mM,0.919 ± 0.057
same,NP40-soluble protein abundance,concentration: 6mM,0.869 ± 0.082
same,NP40-soluble protein abundance,concentration: 8mM,0.937 ± 0.065
same,NP40-soluble protein abundance,concentration: 10mM,0.921 ± 0.12
TMED8 (UniProt Q6PL24),NP40-soluble protein abundance,concentration: 0.1mM,1.03 ± 0.033
same,NP40-soluble protein abundance,concentration: 0.5mM,0.997 ± 0.023
same,NP40-soluble protein abundance,concentration: 1mM,0.95 ± 0.03
same,NP40-soluble protein abundance,concentration: 2mM,0.93 ± 0.035
same,NP40-soluble protein abundance,concentration: 4mM,0.938 ± 0.087
same,NP40-soluble protein abundance,concentration: 6mM,0.899 ± 0.049
same,NP40-soluble protein abundance,concentration: 8mM,0.907 ± 0.063
same,NP40-soluble protein abundance,concentration: 10mM,0.894 ± 0.07
LYRM7 (UniProt Q5U5X0),NP40-soluble protein abundance,concentration: 0.1mM,0.867 ± 0.019
same,NP40-soluble protein abundance,concentration: 0.5mM,0.89 ± 0.056
same,NP40-soluble protein abundance,concentration: 1mM,1.004 ± 0.0052
same,NP40-soluble protein abundance,concentration: 2mM,1.03 ± 0.11
same,NP40-soluble protein abundance,concentration: 4mM,0.968 ± 0.079
same,NP40-soluble protein abundance,concentration: 6mM,0.989 ± 0.11
same,NP40-soluble protein abundance,concentration: 8mM,0.851 ± 0.084
same,NP40-soluble protein abundance,concentration: 10mM,0.986 ± 0.08
MTDH (UniProt Q86UE4),NP40-soluble protein abundance,concentration: 0.1mM,1.02 ± 0.054
same,NP40-soluble protein abundance,concentration: 0.5mM,1.01 ± 0.061
same,NP40-soluble protein abundance,concentration: 1mM,1.12 ± 0.059
same,NP40-soluble protein abundance,concentration: 2mM,1.2 ± 0.1
same,NP40-soluble protein abundance,concentration: 4mM,1.34 ± 0.11
same,NP40-soluble protein abundance,concentration: 6mM,1.41 ± 0.13
same,NP40-soluble protein abundance,concentration: 8mM,1.5 ± 0.16
same,NP40-soluble protein abundance,concentration: 10mM,1.54 ± 0.2
UniProt Q6ZNW5 and related entries,NP40-soluble protein abundance,concentration: 0.1mM,1.15 ± 0.048
same,NP40-soluble protein abundance,concentration: 0.5mM,1.03 ± 0.089
same,NP40-soluble protein abundance,concentration: 1mM,0.986 ± 0.023
same,NP40-soluble protein abundance,concentration: 2mM,0.908 ± 0.035
same,NP40-soluble protein abundance,concentration: 4mM,0.998 ± 0.031
same,NP40-soluble protein abundance,concentration: 6mM,0.946 ± 0.017
same,NP40-soluble protein abundance,concentration: 8mM,0.904 ± 0.055
same,NP40-soluble protein abundance,concentration: 10mM,0.872 ± 0.038

# No new results follow: entries from further up.
target,measurement,setting,value
LYRM7 (UniProt Q5U5X0),NP40-soluble protein abundance,concentration: 0.5mM,0.89 ± 0.056
same,NP40-soluble protein abundance,concentration: 1mM,1.004 ± 0.0052
same,NP40-soluble protein abundance,concentration: 2mM,1.03 ± 0.11
same,NP40-soluble protein abundance,concentration: 4mM,0.968 ± 0.079
same,NP40-soluble protein abundance,concentration: 6mM,0.989 ± 0.11
same,NP40-soluble protein abundance,concentration: 8mM,0.851 ± 0.084
same,NP40-soluble protein abundance,concentration: 10mM,0.986 ± 0.08
